Assay results: PMC4778918, “Signal Transduction at the Domain Interface of Prokaryotic Pentameric Ligand-Gated Ion Channels” (PLoS Biology, 2016)
Read-outs that look alike come from different tables or passages of the source.

Tested on: ELIC R91A/F116A
Assay type: binding, Erwinia chrisanthemi
Settings: ITC, propylamine

## CCCN [propylamine]
Molar Ratio 0.44
  kcal/mol (fit): 1000.43 kcal/mol
  kcal/mol (meas.): 1105.90 kcal/mol
Molar Ratio 0.80
  kcal/mol (fit): 791.05 kcal/mol
  kcal/mol (meas.): 717.48 kcal/mol
Molar Ratio 1.52
  kcal/mol (fit): 457.90 kcal/mol
  kcal/mol (meas.): 421.63 kcal/mol
Molar Ratio 2.26
  kcal/mol (fit): 265.02 kcal/mol
  kcal/mol (meas.): 260.36 kcal/mol
Molar Ratio 2.63
  kcal/mol (fit): 205.92 kcal/mol
  kcal/mol (meas.): 217.55 kcal/mol
Molar Ratio 3.01
  kcal/mol (fit): 162.73 kcal/mol
  kcal/mol (meas.): 157.06 kcal/mol
Molar Ratio 3.39
  kcal/mol (fit): 130.74 kcal/mol
  kcal/mol (meas.): 179.77 kcal/mol
Molar Ratio 3.77
  kcal/mol (fit): 106.66 kcal/mol
  kcal/mol (meas.): 125.91 kcal/mol
Molar Ratio 4.16
  kcal/mol (fit): 88.23 kcal/mol
  kcal/mol (meas.): 111.41 kcal/mol
Molar Ratio 4.55
  kcal/mol (fit): 73.89 kcal/mol
  kcal/mol (meas.): 95.33 kcal/mol
Molar Ratio 4.95
  kcal/mol (fit): 62.57 kcal/mol
  kcal/mol (meas.): 70.17 kcal/mol
Molar Ratio 5.34
  kcal/mol (fit): 53.50 kcal/mol
  kcal/mol (meas.): 80.01 kcal/mol
Molar Ratio 6.15
  kcal/mol (fit): 40.10 kcal/mol
  kcal/mol (meas.): 51.72 kcal/mol
Molar Ratio 6.56
  kcal/mol (fit): 35.08 kcal/mol
  kcal/mol (meas.): 60.19 kcal/mol
Molar Ratio 6.97
  kcal/mol (fit): 30.88 kcal/mol
  kcal/mol (meas.): 37.21 kcal/mol
Molar Ratio 7.39
  kcal/mol (fit): 27.33 kcal/mol
  kcal/mol (meas.): 32.66 kcal/mol
Molar Ratio 8.33
  kcal/mol (fit): 21.10 kcal/mol
  kcal/mol (meas.): 25.36 kcal/mol
Molar Ratio 8.76
  kcal/mol (fit): 18.92 kcal/mol
  kcal/mol (meas.): 18.69 kcal/mol
Molar Ratio 9.19
  kcal/mol (fit): 17.03 kcal/mol
  kcal/mol (meas.): 11.66 kcal/mol
Molar Ratio 9.62
  kcal/mol (fit): 15.36 kcal/mol
  kcal/mol (meas.): 15.49 kcal/mol
Molar Ratio 10.06
  kcal/mol (fit): 13.89 kcal/mol
  kcal/mol (meas.): 9.31 kcal/mol
Molar Ratio 10.94
  kcal/mol (fit): 11.43 kcal/mol
  kcal/mol (meas.): 11.84 kcal/mol
Molar Ratio 11.39
  kcal/mol (fit): 10.39 kcal/mol
  kcal/mol (meas.): -0.19 kcal/mol
Molar Ratio 11.84
  kcal/mol (fit): 9.45 kcal/mol
  kcal/mol (meas.): 7.58 kcal/mol
Molar Ratio 12.30
  kcal/mol (fit): 8.60 kcal/mol
  kcal/mol (meas.): 8.19 kcal/mol
Molar Ratio 12.75
  kcal/mol (fit): 7.84 kcal/mol
  kcal/mol (meas.): -7.21 kcal/mol
Molar Ratio 13.21
  kcal/mol (fit): 7.14 kcal/mol
  kcal/mol (meas.): -4.30 kcal/mol
Molar Ratio 13.68
  kcal/mol (fit): 6.50 kcal/mol
  kcal/mol (meas.): 0.39 kcal/mol
Molar Ratio 14.15
  kcal/mol (fit): 5.91 kcal/mol
  kcal/mol (meas.): -4.07 kcal/mol
Molar Ratio 14.62
  kcal/mol (fit): 5.37 kcal/mol
  kcal/mol (meas.): -6.05 kcal/mol
Molar Ratio 15.09
  kcal/mol (fit): 4.87 kcal/mol
  kcal/mol (meas.): -1.35 kcal/mol
Molar Ratio 15.57
  kcal/mol (fit): 4.41 kcal/mol
  kcal/mol (meas.): -2.02 kcal/mol
Molar Ratio 16.05
  kcal/mol (fit): 3.98 kcal/mol
  kcal/mol (meas.): -1.01 kcal/mol
